Experimental data from the supplement of paper PMC3334620.
Whole data set: some 33,000 sequences, median “E-score (-0.5 to 0.5)” near -0.0059, cut for the highest 2% near 0.26. The list shows a part of the results.

What follows are sequences tested against T1, Cin5 (UniProt P40917) (assay: PBM E-score (8-mer binding enrichment) (E-score (-0.5 to 0.5)); higher = stronger / more preferred TF binding). Details: protein concentration: 100 nM; construct: GST-full length.
T1 sequence: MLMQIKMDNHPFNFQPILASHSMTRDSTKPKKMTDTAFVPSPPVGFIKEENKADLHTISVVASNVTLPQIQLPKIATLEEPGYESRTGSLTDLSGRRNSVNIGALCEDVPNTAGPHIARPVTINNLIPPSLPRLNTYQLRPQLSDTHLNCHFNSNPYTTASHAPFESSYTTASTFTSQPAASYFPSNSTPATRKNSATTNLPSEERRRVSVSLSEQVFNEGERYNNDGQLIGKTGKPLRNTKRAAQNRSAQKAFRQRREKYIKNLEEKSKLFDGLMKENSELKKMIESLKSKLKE
Method in brief: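 Yeast transcription factors carrying a GST tag, as full-length proteins or DNA-binding domains, were produced by PURExpress in vitro transcription/translation. About 100-200 nM protein was applied to universal all-10-mer Agilent arrays, double-stranded by primer extension on fresh or once-stripped slides. Bound protein was detected with fluorescent anti-GST, and scans were normalised with masliner. The Universal PBM Analysis Suite gave each ungapped eight-base word, pooled with its reverse complement, an E-score, a modified Wilcoxon-Mann-Whitney statistic.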

Sequence | PBM E-score
CGGTTACG | 0.00513
CAGGGGAG | -0.212
CTCTTCGC | -0.051
AGGGTTCC | -0.0765
ACAATAAC | 0.143
CCGGCGAC | -0.0986
GCAACTCA | 0.00079
CTACCCAG | -0.0241
CCGCATCC | -0.109
TAGCCTGA | -0.204
CTGAAGCA | -0.0377
ACAAAAGG | -0.0977
GGCCCTTA | -0.0642
GGGCGAAA | 0.0331
ATTCTGCC | -0.0117
AATAGAAG | -0.0436
CAGAGACC | -0.221
AAGTTCTG | -0.0241
TAGCAGGA | -0.0847
CTTAGAAA | 0.0683
CTGCTCGC | -0.0429
CTGGATAC | 0.0106
CGCGCGGA | 0.107
CTCGCCTC | -0.246
AACCTCGG | 0.00292

Sequence | PBM E-score
GGTTAGAC | -0.021
AGAGACTG | -0.178
AGTTAGAT | 0.0471
ATCACCGC | -0.069
ACTCGCCA | 0.0272
ACCGAGCA | 0.0521
GGAATGCA | 0.124
ACGCGTTA | -0.0183
ACGAGTTG | 0.0131
GTTTATCA | 0.18
AAGGCCTT | -0.267
CGACTACC | -0.181
ATGCGACC | 0.203
GCATCCAA | -0.0577
ATGGTTAA | -0.0632
CTTGTTAC | -0.0236
CATTCGGG | 0.0795
AGCAAGTG | 0.015
AATTTATA | 0.249
CATGAAGG | 0.0872
ACTAGCTC | -0.0219
GCGCGTCA | 0.0483
CCGTCTCA | -0.0703
ATTGGAGG | -0.171
CCGTCGCA | -0.0427

Sequence | PBM E-score
CAATACGG | -0.036
ACGCGACT | -0.0732
ACGAGGAA | 0.187
GCGTGGTA | -0.1
ATCACCTC | -0.0112
GTAGGGGA | -0.0872
ATGCCAAT | -0.0392
AGCGTCCC | -0.0983
GAATAAAC | 0.105
CATCTTAG | 0.0266
GTTTACCA | -0.0695
ATCGATAG | 0.0934
AAGCAGAG | -0.0388
ACTCCTGC | 0.0393
GCAGACCA | -0.188
ATCTCGGG | 0.121
GCACTTTA | -0.0367
ACGCGACA | 0.0689
GCAGAGAA | -0.0127
GCCGGTCC | -0.3
CGGCTCAC | 0.0595
CGCGAGCC | -0.0158
CCGGGGAA | -0.00061
AATGGAAA | 0.203
AAGGGCAT | -0.295

Retrieved one by one from above, 2 records:
Sequence | PBM E-score
ATCTCGGG | 0.121
GTTTACCA | -0.0695

(listing goes on)

Sequence | PBM E-score
AATCACAA | 0.127
AGTCCGAT | 0.00522
GTCTCAAC | -0.0587
ACTGGTCA | 0.0598
GATTATAA | 0.257
AGCGGTAC | 0.034
AAAGGATA | 0.0839
ATTGAGAG | 0.0908
CAGTACAG | 0.0274
GCCCAACA | -0.175
AATTAGTC | 0.26
AATCCCCT | -0.0363
CAGGCTTC | 0.00304
CAGTGCGA | 0.00838
CCGAAGCC | -0.231
AGCTGATG | 0.14
CCGGACTC | -0.0535
CAGTAGGG | -0.157
ATAGTCGG | -0.122
GGCGCGGA | -0.189
AGTGTGAC | -0.076
ACGTCCCC | -0.0955
ATCCTAGA | -0.0843
AGGGTACG | -0.111
ACAGTAGA | 0.153

Sequence | PBM E-score
CCTAAACA | -0.0904
ATATCCAA | 0.132
CCGAGCGC | -0.0761
TAGTCTAA | 0.0173
AATTGTTC | 0.175
TTCTCCAA | -0.0656
CGCTAACG | -0.0379
GCAAGGCC | -0.183
AATCGATC | 0.127
GCAAGTAC | -0.0389
AAGACAAG | -0.0281
GAAAGGGC | -0.249
CTTGTCAC | -0.0969
CGTGGGTA | -0.138
CTGAGTCC | -0.27
AGCATGAC | 0.0442
AGATGTGG | -0.0232
CACACTGA | -0.0176
ATATAGGG | -0.0167
GTCGCCCA | -0.283
GTGATGTA | 0.172
GGGAGACC | -0.377
AACCCGCC | -0.0568
CTCACGCC | -0.0928
GTACAGAA | 0.0148

Taken from above.
In PBM E-score, GGGAGACC is listed with -0.377
In PBM E-score, CCGAGCGC is listed with -0.0761
In PBM E-score, CTTGTCAC is listed with -0.0969
In PBM E-score, CCTAAACA is listed with -0.0904
In PBM E-score, GTGATGTA is listed with 0.172
In PBM E-score, AACCCGCC is listed with -0.0568

More results follow:

Sequence | PBM E-score
GGTTAAAA | -0.0394
CTACTACC | 0.0208
TGCCTTAA | -0.0943
ACACGTAA | 0.3
AACCTAGG | -0.0368
AAACGACG | 0.132
GCCGGGAA | -0.12
CAGCATCC | -0.067
GATCCTGA | 0.0241
CCGAGGGC | -0.155
TACCCCCA | -0.299
CGTGCTGA | 0.0279
AGCCTTAC | -0.241
CAAGATCC | 0.0682
GAGAACTA | 0.0749
CACCCAAG | -0.127
TCATAGCA | 0.0458
CGGGGCAG | -0.117
CCGACGAG | -0.151
CTTGAATC | -0.0191
CTGGAGGA | -0.281
CACGGCCA | -0.145
CCTATGCC | -0.134
TGCGGTAA | -0.044
GGAGGGGA | -0.0844

Sequence | PBM E-score
GCCAACAA | -0.126
CCAGCAAG | -0.182
ACCGGTCC | -0.302
AAGTCGTG | 0.00511
AGCAGACC | -0.0747
CCTCTGTA | -0.204
GACTAACA | 0.0659
GAGGTAGC | -0.174
ACAAAACG | 0.178
AATAGTGT | 0.254
CGGTCACA | -0.0126
ATTCTTGA | 0.101
ATTGCCCG | -0.0833
GCTGATCA | 0.108
TATTGAAA | 0.257
AGCGCTGA | 0.0972
CATGGCAG | -0.0392
CCGAGCCG | -0.0876
ATCAACCA | 0.122
CCGGTTAC | 0.0723
GGTCCTAC | -0.212
ATGATCAA | 0.143
